PMC3795029

How the values were obtained:
[1] = molecular target: VN-Tbx2a (zebrafish (Danio rerio)); experiment: split reporter; BiFC with split Venus (VN154m10 / VC155) fused N-terminally; pairs of pCS2 constructs transfected into HEK 293T cells (jetPRIME), 0.3-0.5 µg per construct per 3.5 cm plate; nuclear Venus fluorescence seen by confocal microscopy, vital DAPI
[2] = molecular target: VC-Tbx2a (zebrafish (Danio rerio)); experiment: as above

- binding [1]: binds
B1: VC-Tbx1 (protein, UniProt Q8AXX2 1-460)
chain: MISAISSPWLTQLSHFCDVAAFTTSSLSSLNTPGSYHLSPSPGDPYSHHESQFEPCPAAQHAYNYSGSNSAQAPAQGDSGTSNCSSSSSSSTPNKTLVKKNPKVANINVQLEMKALWDEFNQLGTEMIVTKAGRRMFPTFQVKIFGMDPMADYMLLMDFLPVDDKRYRYAFHSSSWLVAGKADPATPGRVHYHPDSPAKGAQWMKQIVSFDKLKLTNNLLDDNGHIILNSMHRYQPRFHVVYVDPRKDSEKYAEENYKTFVFEETRFTAVTAYQNHRITQLKIASNPFAKGFRDCDPEDWPRNHRPGSLQIMSAFARTRNPMSSPPQQNGTEKEDSRREYDRDPSGNPLHSDPTHQLMSRVLSPALPVLGGLHAVPLTAGPRSPPHELRLDGHPQPPDTLHHHPYKYPATYEHYLGAKTRPSPYPSPSIRGHGYHPHMNPTTANMYSATSAPTNYDYGPR

- binding [2]: binds
B2: VN-Tbx1 (protein, UniProt Q8AXX2 1-460)
chain: B1 chain

No constants are given. Whether binding was seen depends on the method and setting. In cells and extracts the contact can be indirect. Binding calls can cover weak binding; strength is not graded here. One block for each binder: values may come before it.
